Results from patent US5912230A, “Anti-fungal and anti-bacterial histatin-based peptides” (priority 1998, dated 1999).
For some assays here: At least one peptide structure holds a part that was inferred or is arguable (an end, a ring closure or a residue). For some assays here: At least one structure is not confirmed: it was looked up by name or label, or the drawing left a doubt. Where no end group is shown, it is not given here.

The chains behind the UniProt entries cited, without tags or fusion partners. Residues count along the entry.
UniProt P09870, 191-526: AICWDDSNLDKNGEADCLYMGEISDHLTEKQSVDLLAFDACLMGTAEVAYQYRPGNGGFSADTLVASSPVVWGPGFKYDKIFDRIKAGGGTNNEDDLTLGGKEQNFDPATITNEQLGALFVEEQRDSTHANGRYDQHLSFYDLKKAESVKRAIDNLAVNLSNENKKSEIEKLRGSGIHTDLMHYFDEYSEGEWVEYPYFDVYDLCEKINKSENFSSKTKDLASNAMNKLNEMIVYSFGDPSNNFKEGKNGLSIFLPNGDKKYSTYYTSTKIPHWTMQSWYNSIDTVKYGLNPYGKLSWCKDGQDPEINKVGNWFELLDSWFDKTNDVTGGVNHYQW
UniProt P09870, 51-181: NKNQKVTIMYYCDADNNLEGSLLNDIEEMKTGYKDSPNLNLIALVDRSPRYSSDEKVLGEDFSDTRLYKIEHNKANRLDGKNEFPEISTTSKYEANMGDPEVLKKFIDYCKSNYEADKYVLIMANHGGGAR

Key:
[1] = system: P. gingivalis hemagglutination of erythrocytes; assay: histatin peptide inhibition of hemagglutination assay; type: cell-based, Porphyromonas gingivalis; conditions: 2 hours at room temperature, visual examination
Description: The P. gingivalis strain of Section C.(1) was also used for the hemagglutination assays. The bacterial growth and culture conditions were also the same as those described in Section C.(1).
A classic assay was utilized to determine the hemagglutination potential of the P. gingivalis strain. Microorganisms were inoculated into BFB broth and cultured overnight, for approximately 24 hours at 37° C. under strictly anaerobic conditions with continuous agitation on a minishaker (IKA-Labortechnik, Staufen i. Br., Germany). The bacteria were harvested by centrifugatin at 3,000 r.p.m. for 20 min, at 4° C., washed twice in 0.01M phosphate buffered saline (PBS), pH 7.4, and suspended in the same buffer to an optical density of 1.0 at 550 nm. […] One ml of blood was drawn each time, washed twice in PBS at 1,000 r.p.m. for 10 min at 4° C. and suspended in the same buffer at a 2% (v/v) final concentration. […] The hemagglutination titer was expressed as the reciprocal of the highest dilution of the bacterial suspension providing visible hemagglutination.
Preparation of erythrocyte and bacterial suspensions were the same as for the hemagglutination assay. […] The lowest histatin peptide concentration without hemagglutination (complete inhibition) was determined upon visual examination. […]

[2] = system: C. albicans blastoconidia; conditions: 1 h at 37° C., pH 7.4
Description: C. albicans is a dimorphic yeast. It can exist in a yeast or blastoconidial form, which upon germination develops into the hyphal or germinated form. While the germinated form is considered to be more invasive, most of the C. albicans isolates harvested from the oral cavities of healthy individuals appear to be in the blastoconidial form. (Arendorf, T. M. et al. (1980), Arch. Oral Biol. 25:1-10; Gow, N.A.R. et al. (1987), Criti. Rev. Microbiol. 15:73-78; Odds, F. C. (1988), Candida and Candidosis, 2nd ed., Bailliere Tindall, London, England). Anti-fungal activity of synthetic histatin 5, histatin-based peptide 113, peptides based on portions of the amino acid sequences of histatin-based peptide 113 and peptides derived from histatin-based peptide 113 with specified amino acid substitutions was measured in assays designed to test the effectiveness of the peptides against the blastoconidia form of Candida (Table 1). These assays, which measure killing of blastoconidia of C. albicans, are described in Xu et al., which is herein incorporated by reference. […]
To initiate log phase growth, an aliquot of stock C. albicans was suspended in Sabouraud dextrose broth (Difco) and incubated at 30° C. in a shaking water bath. The growth phase was determined by taking aliquots of the culture at one hour intervals to monitor the optical density (O.D.) at 560 nm. […]

Clostripain = target: T1, Clostripain (Hathewaya histolytica, UniProt P09870); assay: clostripain assay (BAPNA hydrolysis); type: biochemical, Clostridium histolyticum; conditions: read-out: Clostripain: IC50 (μM) for inhibition of Clostripain
T1 construct: purchased Sigma Chemical Corp., St. Louis, Mo
Description: Clostripain from Clostridium histolyticum (Sigma Chemical Corp., St. Louis, Mo.) was dissolved in deionized water to a concentration of 1 mg/mL (300 units/mg) and activated with the addition of 10 mmol/L DTT. To measure its hydrolytic activity, clostripain (6 units) was added to […] Hepes buffer, pH 7.5, containing 80 gmol/L BAPNA (benzoyl-arginine-p-nitroanilide), together with 5.6 μmol/L of histatin peptide inhibitor. As controls, assays were performed in the absence of any histatin peptide inhibitor. The activity was monitored continuously at 405 nm using a Molecular Devices VMax microtitre plate reader. The activities were determined from the maximum rates of substrate hydrolysis. Assays were done in duplicate, and the means normalized to the controls.

| Compound | IC50 (Clostripain) | also measured |
| --- | --- | --- |
| C[C@H](NC(=O)[C@H](Cc1c[nH]cn1)NC(=O)[C@H](CO)NC(=O)[C@@H](N)CC(=O)O)C(=O)N[C@@H](CCCCN)C(=O)N[C@@H](CCCNC(=N)N)C(=O)N[C@@H](Cc1c[nH]cn1)C(=O)N[C@@H](Cc1c[nH]cn1)C(=O)NCC(=O)N[C@@H](Cc1ccc(O)cc1)C(=O)N[C@@H](CCCCN)C(=O)N[C@@H](CCCNC(=N)N)C(=O)N[C@@H](CCCCN)C(=O)N[C@@H](Cc1ccccc1)C(=O)N[C@@H](Cc1c[nH]cn1)C(=O)N[C@@H](CCC(=O)O)C(=O)N[C@@H](CCCCN)C(=O)N[C@@H](Cc1c[nH]cn1)C(=O)N[C@@H](Cc1c[nH]cn1)C(=O)N[C@@H](CO)C(=O)N[C@@H](Cc1c[nH]cn1)C(=O)N[C@@H](CCCNC(=N)N)C(=O)NCC(=O)N[C@@H](Cc1ccc(O)cc1)C(=O)O [SynHis5, reference compound] | – | Hemagglutination: lowest dose (μM) at which hemagglutination was observed using P. Gingivalis [1]: 3.12 µM |
| GYKRKFHEKHHSHRGYR [compound 102] | – | C. albicans: LD50 (μM) for % killing [2]: 10 µM |
| KRHHGYKRKFHEKHH [peptide 105] | 3.3 µM | – |
| KRHHGYKRKFHEKHHSHR [peptide 103] | 19 µM | – |
| KRHHGYKRKFHEKHHSHRGYR [peptide 101] | 7.5 µM | – |
